The list shows a part of the results.
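Note: competitive profiling in live THP-1 cells: cysteine peptides tagged with an iodoacetamide desthiobiotin (IA-DTB) probe, intensity after compound treatment relative to DMSO-treated cells.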

Protein sequences, listed by entry. Tags and fused reporters are not part of them. Lines headed by an entry give the natural chain unless they say otherwise; changes in a name come on top.
UniProt Q29RF7: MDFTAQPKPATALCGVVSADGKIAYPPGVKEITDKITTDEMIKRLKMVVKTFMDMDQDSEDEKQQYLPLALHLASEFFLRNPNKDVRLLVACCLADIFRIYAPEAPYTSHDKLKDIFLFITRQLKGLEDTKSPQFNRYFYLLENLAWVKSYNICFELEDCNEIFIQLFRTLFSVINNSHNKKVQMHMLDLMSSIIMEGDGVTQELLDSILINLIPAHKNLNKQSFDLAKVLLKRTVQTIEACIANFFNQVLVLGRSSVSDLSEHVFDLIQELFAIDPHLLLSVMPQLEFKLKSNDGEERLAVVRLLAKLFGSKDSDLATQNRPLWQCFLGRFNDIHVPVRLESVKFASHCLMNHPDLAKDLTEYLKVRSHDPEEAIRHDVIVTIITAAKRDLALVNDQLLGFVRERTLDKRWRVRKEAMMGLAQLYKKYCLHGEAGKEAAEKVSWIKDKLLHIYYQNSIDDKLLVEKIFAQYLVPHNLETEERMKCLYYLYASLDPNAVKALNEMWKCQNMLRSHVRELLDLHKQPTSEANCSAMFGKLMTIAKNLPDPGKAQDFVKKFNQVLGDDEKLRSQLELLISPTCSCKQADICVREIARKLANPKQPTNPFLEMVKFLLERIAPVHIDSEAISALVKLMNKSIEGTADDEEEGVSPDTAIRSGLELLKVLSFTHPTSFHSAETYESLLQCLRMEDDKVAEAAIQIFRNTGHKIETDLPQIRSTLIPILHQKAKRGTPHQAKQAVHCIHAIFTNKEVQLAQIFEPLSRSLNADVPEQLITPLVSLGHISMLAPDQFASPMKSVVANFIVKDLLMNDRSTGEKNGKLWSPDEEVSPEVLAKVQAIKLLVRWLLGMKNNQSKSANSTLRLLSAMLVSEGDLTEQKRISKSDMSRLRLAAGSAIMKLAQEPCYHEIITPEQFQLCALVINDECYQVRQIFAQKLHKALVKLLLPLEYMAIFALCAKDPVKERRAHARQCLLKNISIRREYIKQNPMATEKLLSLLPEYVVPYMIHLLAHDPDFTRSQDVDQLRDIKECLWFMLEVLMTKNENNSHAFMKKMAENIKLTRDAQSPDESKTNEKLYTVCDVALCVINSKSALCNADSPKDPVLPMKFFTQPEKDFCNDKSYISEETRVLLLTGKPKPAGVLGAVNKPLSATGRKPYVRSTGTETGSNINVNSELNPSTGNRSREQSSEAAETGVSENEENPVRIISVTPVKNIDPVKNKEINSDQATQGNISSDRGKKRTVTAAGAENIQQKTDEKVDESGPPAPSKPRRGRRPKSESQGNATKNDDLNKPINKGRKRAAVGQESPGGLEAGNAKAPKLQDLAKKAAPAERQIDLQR
UniProt Q96JY6: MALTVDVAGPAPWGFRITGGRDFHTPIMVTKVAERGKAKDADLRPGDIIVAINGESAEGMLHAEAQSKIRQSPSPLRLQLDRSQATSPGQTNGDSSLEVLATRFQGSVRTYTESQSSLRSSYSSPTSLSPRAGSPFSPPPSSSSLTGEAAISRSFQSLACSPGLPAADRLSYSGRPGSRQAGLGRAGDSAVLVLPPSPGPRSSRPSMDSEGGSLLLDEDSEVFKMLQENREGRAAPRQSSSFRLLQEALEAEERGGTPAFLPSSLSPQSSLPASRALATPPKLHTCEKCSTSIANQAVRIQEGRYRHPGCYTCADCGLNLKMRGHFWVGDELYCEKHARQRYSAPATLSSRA
UniProt Q9P0J1: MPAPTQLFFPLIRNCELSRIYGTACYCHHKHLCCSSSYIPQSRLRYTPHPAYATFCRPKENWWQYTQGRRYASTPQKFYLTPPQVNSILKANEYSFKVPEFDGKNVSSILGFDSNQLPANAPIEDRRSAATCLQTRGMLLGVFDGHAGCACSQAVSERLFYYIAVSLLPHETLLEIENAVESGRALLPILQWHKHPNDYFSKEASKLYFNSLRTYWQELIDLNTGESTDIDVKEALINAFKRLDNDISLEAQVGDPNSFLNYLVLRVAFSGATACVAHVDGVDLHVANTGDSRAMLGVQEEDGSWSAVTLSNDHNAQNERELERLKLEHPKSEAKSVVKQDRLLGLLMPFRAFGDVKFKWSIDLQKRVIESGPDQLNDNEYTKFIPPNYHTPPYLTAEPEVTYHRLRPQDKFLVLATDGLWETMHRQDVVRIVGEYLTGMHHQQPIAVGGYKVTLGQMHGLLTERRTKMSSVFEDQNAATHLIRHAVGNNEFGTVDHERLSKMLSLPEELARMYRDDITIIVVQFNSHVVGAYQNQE
UniProt P49585: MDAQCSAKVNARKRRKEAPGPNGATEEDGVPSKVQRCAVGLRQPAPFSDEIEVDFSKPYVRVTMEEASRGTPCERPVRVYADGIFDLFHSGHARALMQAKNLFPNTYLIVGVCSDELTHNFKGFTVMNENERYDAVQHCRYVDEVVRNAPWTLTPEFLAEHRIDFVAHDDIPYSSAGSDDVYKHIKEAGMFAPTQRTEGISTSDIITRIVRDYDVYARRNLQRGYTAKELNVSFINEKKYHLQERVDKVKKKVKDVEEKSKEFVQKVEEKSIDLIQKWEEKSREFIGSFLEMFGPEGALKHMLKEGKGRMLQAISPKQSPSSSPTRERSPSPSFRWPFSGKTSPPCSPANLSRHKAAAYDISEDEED
UniProt Q86U86, whole entry, looked up: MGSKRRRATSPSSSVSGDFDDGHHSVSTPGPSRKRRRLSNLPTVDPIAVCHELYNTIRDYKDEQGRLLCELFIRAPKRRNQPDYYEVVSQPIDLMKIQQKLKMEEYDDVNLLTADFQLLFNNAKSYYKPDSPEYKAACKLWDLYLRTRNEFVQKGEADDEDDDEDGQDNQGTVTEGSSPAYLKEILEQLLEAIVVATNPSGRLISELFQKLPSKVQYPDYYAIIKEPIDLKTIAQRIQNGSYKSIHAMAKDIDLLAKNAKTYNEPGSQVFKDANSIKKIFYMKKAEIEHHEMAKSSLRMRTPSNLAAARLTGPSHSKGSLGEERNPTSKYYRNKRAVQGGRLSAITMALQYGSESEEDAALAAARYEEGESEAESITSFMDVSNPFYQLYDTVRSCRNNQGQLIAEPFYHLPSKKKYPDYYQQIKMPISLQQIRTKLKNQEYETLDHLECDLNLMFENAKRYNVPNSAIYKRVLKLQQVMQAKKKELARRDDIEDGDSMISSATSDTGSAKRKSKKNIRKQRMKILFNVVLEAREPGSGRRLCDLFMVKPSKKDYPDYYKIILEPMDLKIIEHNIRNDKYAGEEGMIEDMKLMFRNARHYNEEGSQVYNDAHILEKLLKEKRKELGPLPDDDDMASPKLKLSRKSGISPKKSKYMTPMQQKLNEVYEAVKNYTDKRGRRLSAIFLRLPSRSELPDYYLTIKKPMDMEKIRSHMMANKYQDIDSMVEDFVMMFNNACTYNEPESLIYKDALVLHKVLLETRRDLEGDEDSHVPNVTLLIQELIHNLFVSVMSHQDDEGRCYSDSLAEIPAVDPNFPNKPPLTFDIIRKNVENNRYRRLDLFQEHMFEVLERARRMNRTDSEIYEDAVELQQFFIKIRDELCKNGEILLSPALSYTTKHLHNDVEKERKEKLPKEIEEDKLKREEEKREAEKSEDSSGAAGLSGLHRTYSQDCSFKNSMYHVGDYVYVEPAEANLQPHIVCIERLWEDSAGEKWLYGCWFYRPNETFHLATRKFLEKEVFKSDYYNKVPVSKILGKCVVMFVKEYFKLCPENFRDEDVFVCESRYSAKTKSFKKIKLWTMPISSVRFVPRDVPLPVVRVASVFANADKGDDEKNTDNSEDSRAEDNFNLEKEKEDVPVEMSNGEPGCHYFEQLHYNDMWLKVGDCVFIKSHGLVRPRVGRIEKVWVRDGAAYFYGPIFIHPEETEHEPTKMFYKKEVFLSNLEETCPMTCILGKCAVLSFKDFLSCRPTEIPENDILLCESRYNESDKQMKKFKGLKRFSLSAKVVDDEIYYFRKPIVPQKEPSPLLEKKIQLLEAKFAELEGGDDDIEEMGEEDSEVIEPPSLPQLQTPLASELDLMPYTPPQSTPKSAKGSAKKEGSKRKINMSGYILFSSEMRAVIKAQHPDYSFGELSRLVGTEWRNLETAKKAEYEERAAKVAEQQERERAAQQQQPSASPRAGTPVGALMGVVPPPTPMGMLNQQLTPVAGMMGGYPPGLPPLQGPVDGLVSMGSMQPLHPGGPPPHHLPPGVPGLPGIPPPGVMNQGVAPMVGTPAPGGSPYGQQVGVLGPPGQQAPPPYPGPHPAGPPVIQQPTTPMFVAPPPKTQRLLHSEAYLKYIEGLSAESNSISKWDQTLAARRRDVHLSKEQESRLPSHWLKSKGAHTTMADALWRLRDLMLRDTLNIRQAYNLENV

Compound in this experiment: Cc1cc(ccc1-c1ccccc1)C(=O)N1CCCN(CC1)C(=O)CCl [compound 10]
The experiment is described as follows: probe-labelled cysteine peptide fold change vs DMSO (competition) (log2 fold change); higher = less target engagement (more negative = stronger competition). The following applies: 50 µM; THP-1; incubation time: 4 h.
Take “PDS5A_Q29RF7_327_DSDLATQNRPLWQCFLGR (UniProt Q29RF7)”: the “probe-labelled cysteine peptide fold change” value turned out to be 0.239.

For the target “PDLIM2_Q96JY6_334_GHFWVGDELYCEK (UniProt Q96JY6)”, the “probe-labelled cysteine peptide fold change” value turned out to be 0.0713.

Turning to “PDP1_Q9P0J1_132_SAATCLQTR (UniProt Q9P0J1)”, the “probe-labelled cysteine peptide fold change” value was -0.111.

As to “PDLIM1_O00151_45_AALANLCIGDVITAIDGENTSNMTHLEAQNR (UniProt O00151)”, the “probe-labelled cysteine peptide fold change” value is -0.108.

As for “PCYT1A_P49585_5_MDAQCSAK (UniProt P49585)”, the “probe-labelled cysteine peptide fold change” value is -0.352.

Take “PBRM1_Q86U86_1228_EVFLSNLEETCPMTCILGK (UniProt Q86U86)”: the “probe-labelled cysteine peptide fold change” value turned out to be 0.0923.

The values are drawn from the supplement of paper PMC12067093, “Discovery and optimisation of a covalent ligand for TRIM25 and its application to targeted protein ubiquitination” (Chemical Science, 2025).
